Reference: ChEMBL document CHEMBL4316593 (Eur J Med Chem, 2019)
The source gives many values for each of these; only a part stands here.

Key:
Type in all cases: cell-based
Conditions in all cases: U-87MG ATCC
[1] = Inhibition of RTK/PI3K/AKT/mTOR signaling in human U87 cells assessed as down regulation of ALS2 gene expression at cytotoxic IC50 measured after 48 hrs relative to control
[2] = Inhibition of RTK/PI3K/AKT/mTOR signaling in human U87 cells assessed as up regulation of pyruvate dehydrogenase phosphatase catalytic subunit 1 gene expression at cytotoxic IC50 measured after 48 hrs relative to control
[3] = Inhibition of RTK/PI3K/AKT/mTOR signaling in human U87 cells assessed as down regulation of TDP2 gene expression at cytotoxic IC50 measured after 48 hrs relative to control
[4] = Inhibition of RTK/PI3K/AKT/mTOR signaling in human U87 cells assessed as up regulation of adenosylhomocysteinase gene expression at cytotoxic IC50 measured after 48 hrs relative to control
[5] = Inhibition of RTK/PI3K/AKT/mTOR signaling in human U87 cells assessed as down regulation of CHAF1A gene expression at cytotoxic IC50 measured after 48 hrs relative to control
[6] = Inhibition of RTK/PI3K/AKT/mTOR signaling in human U87 cells assessed as down regulation of STAM gene expression at cytotoxic IC50 measured after 48 hrs relative to control
[7] = Inhibition of RTK/PI3K/AKT/mTOR signaling in human U87 cells assessed as down regulation of CEP97 gene expression at cytotoxic IC50 measured after 48 hrs relative to control
[8] = Inhibition of RTK/PI3K/AKT/mTOR signaling in human U87 cells assessed as down regulation of PLK4 gene expression at cytotoxic IC50 measured after 48 hrs relative to control
[9] = Inhibition of RTK/PI3K/AKT/mTOR signaling in human U87 cells assessed as down regulation of KCNC3 gene expression at cytotoxic IC50 measured after 48 hrs relative to control
[10] = Inhibition of RTK/PI3K/AKT/mTOR signaling in human U87 cells assessed as down regulation of TRMT112 gene expression at cytotoxic IC50 measured after 48 hrs relative to control
[11] = Inhibition of RTK/PI3K/AKT/mTOR signaling in human U87 cells assessed as up regulation of CYP2R1 gene expression at cytotoxic IC50 measured after 48 hrs relative to control
[12] = Inhibition of RTK/PI3K/AKT/mTOR signaling in human U87 cells assessed as down regulation of EIF4A3 gene expression at cytotoxic IC50 measured after 48 hrs relative to control
[13] = Inhibition of RTK/PI3K/AKT/mTOR signaling in human U87 cells assessed as down regulation of UBA5 gene expression at cytotoxic IC50 measured after 48 hrs relative to control
[14] = Inhibition of RTK/PI3K/AKT/mTOR signaling in human U87 cells assessed as up regulation of dynein light chain Tctex-type 1 gene expression at cytotoxic IC50 measured after 48 hrs relative to control
[15] = Inhibition of RTK/PI3K/AKT/mTOR signaling in human U87 cells assessed as down regulation of GCC1 gene expression at cytotoxic IC50 measured after 48 hrs relative to control
[16] = Inhibition of RTK/PI3K/AKT/mTOR signaling in human U87 cells assessed as down regulation of GSK3A gene expression at cytotoxic IC50 measured after 48 hrs relative to control
[17] = Inhibition of RTK/PI3K/AKT/mTOR signaling in human U87 cells assessed as down regulation of H3F3B gene expression at cytotoxic IC50 measured after 48 hrs relative to control
[18] = Inhibition of RTK/PI3K/AKT/mTOR signaling in human U87 cells assessed as up regulation of von Willebrand factor A domain containing 7 gene expression at cytotoxic IC50 measured after 48 hrs relative to control
[19] = Inhibition of RTK/PI3K/AKT/mTOR signaling in human U87 cells assessed as down regulation of UPP1 gene expression at cytotoxic IC50 measured after 48 hrs relative to control
[20] = Inhibition of RTK/PI3K/AKT/mTOR signaling in human U87 cells assessed as up regulation of pleckstrin homology like domain family A member 1 gene expression at cytotoxic IC50 measured after 48 hrs relative to control
[21] = Inhibition of RTK/PI3K/AKT/mTOR signaling in human U87 cells assessed as up regulation of LOC554223 gene expression at cytotoxic IC50 measured after 48 hrs relative to control
[22] = Inhibition of RTK/PI3K/AKT/mTOR signaling in human U87 cells assessed as down regulation of UBE2B gene expression at cytotoxic IC50 measured after 48 hrs relative to control
[23] = Inhibition of RTK/PI3K/AKT/mTOR signaling in human U87 cells assessed as down regulation of UBALD2 gene expression at cytotoxic IC50 measured after 48 hrs relative to control
[24] = Inhibition of RTK/PI3K/AKT/mTOR signaling in human U87 cells assessed as up regulation of TSC22 domain family member 3 gene expression at cytotoxic IC50 measured after 48 hrs relative to control
[25] = Inhibition of RTK/PI3K/AKT/mTOR signaling in human U87 cells assessed as down regulation of C18orf8 gene expression at cytotoxic IC50 measured after 48 hrs relative to control
[26] = Inhibition of RTK/PI3K/AKT/mTOR signaling in human U87 cells assessed as down regulation of NGFR gene expression at cytotoxic IC50 measured after 48 hrs relative to control
[27] = Inhibition of RTK/PI3K/AKT/mTOR signaling in human U87 cells assessed as down regulation of PEPD gene expression at cytotoxic IC50 measured after 48 hrs relative to control
[28] = Inhibition of RTK/PI3K/AKT/mTOR signaling in human U87 cells assessed as up regulation of ATP synthase, H+ transporting, mitochondrial Fo complex subunit C2 (subunit 9) gene expression at cytotoxic IC50 measured after 48 hrs relative to control
[29] = Inhibition of RTK/PI3K/AKT/mTOR signaling in human U87 cells assessed as up regulation of VPS51, GARP complex subunit gene expression at cytotoxic IC50 measured after 48 hrs relative to control
[30] = Inhibition of RTK/PI3K/AKT/mTOR signaling in human U87 cells assessed as up regulation of EPH receptor B4 gene expression at cytotoxic IC50 measured after 48 hrs relative to control
[31] = Inhibition of RTK/PI3K/AKT/mTOR signaling in human U87 cells assessed as down regulation of CD2BP2 gene expression at cytotoxic IC50 measured after 48 hrs relative to control
[32] = Inhibition of RTK/PI3K/AKT/mTOR signaling in human U87 cells assessed as down regulation of SPTBN1 gene expression at cytotoxic IC50 measured after 48 hrs relative to control

SMILES: CC(=O)C(=NNc1ccccc1C#N)C(C)=O
- log2FC [1]: -0.734
- log2FC [2]: 0.795
- log2FC [3]: -0.622
- log2FC [4]: 0.783
- log2FC [5]: -1.21
- log2FC [6]: -1.11
- log2FC [7]: -1.54
- log2FC [8]: -0.814
- log2FC [9]: -1.94
- log2FC [10]: -0.609
- log2FC [11]: 1.81
- log2FC [12]: -0.453
- log2FC [13]: -0.713
- log2FC [14]: 0.772
- log2FC [15]: -0.701
- log2FC [16]: -0.604
- log2FC [17]: -1.1
- log2FC [18]: 1.25
- log2FC [19]: -2.49
- log2FC [20]: 1.29
- log2FC [21]: 3.92
- log2FC [22]: -0.764
- log2FC [23]: -0.689
- log2FC [24]: 1.57
- log2FC [25]: -0.921
- log2FC [26]: -3.49
- log2FC [27]: -0.873
- log2FC [28]: 0.664
- log2FC [29]: 0.849
- log2FC [30]: 1.27
- log2FC [31]: -0.877
- log2FC [32]: -0.379
